Results taken from article PMC4588883.
No constants are given. Whether binding was seen depends on the method and setting. Binding seen in cells or lysates may run through a third protein. Some entries that bind do so weakly or less than the wild type. Tags and fused reporters may be left off the sequences shown.

T1: N-terminal domain of NSN1 (NSN1-N; amino acids 1-174), BiFC fusion (Arabidopsis thaliana) (UniProt Q9M8Z5)
T1 sequence: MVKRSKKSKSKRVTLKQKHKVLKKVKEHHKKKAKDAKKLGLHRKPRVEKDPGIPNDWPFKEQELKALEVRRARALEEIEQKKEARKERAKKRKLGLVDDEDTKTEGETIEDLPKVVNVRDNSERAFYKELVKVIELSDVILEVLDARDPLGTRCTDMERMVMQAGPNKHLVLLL

T2: nucleostemin-like 1 (NSN1), YFP^N or YFP^C fusion for BiFC (Arabidopsis thaliana) (UniProt Q9M8Z5)
T2 sequence: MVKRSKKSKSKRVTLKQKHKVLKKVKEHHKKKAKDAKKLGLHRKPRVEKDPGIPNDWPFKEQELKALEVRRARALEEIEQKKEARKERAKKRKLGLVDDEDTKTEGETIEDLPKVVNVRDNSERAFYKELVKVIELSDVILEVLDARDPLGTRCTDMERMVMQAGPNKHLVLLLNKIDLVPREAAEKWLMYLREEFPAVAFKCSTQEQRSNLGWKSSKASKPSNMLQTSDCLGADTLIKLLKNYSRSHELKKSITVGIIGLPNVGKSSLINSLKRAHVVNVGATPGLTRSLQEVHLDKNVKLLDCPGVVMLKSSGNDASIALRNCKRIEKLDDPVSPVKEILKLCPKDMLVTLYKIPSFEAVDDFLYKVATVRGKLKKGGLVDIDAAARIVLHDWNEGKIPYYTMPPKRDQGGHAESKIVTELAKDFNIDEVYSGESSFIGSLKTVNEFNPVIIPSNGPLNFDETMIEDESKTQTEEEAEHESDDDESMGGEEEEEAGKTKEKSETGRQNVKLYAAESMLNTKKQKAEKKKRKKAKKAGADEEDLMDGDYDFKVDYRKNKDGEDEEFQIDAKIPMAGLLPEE

T3: NSN1 lacking the N-terminal 94 amino acids (∆N), BiFC fusion (Arabidopsis thaliana) (UniProt Q9M8Z5)
T3 sequence: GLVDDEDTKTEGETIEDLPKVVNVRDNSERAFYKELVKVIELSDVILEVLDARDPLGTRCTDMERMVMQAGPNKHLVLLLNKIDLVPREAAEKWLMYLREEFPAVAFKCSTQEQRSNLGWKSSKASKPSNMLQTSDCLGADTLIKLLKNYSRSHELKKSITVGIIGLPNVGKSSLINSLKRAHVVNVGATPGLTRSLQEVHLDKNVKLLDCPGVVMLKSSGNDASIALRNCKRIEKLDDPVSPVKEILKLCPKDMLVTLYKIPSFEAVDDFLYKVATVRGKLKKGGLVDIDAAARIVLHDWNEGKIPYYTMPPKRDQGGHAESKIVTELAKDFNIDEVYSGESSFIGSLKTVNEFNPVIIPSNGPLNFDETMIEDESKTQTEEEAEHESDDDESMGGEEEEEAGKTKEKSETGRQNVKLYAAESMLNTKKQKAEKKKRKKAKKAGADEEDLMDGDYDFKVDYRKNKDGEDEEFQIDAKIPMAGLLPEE

T4: haemagglutinin-fused NSN1 (NSN1:HA) (Arabidopsis thaliana) (UniProt Q9M8Z5)
T4 sequence: T2 sequence

T5: Arabidopsis Pescadillo (PES), YFP^N or YFP^C fusion for BiFC (Arabidopsis) (UniProt Q9LYK7)
T5 sequence: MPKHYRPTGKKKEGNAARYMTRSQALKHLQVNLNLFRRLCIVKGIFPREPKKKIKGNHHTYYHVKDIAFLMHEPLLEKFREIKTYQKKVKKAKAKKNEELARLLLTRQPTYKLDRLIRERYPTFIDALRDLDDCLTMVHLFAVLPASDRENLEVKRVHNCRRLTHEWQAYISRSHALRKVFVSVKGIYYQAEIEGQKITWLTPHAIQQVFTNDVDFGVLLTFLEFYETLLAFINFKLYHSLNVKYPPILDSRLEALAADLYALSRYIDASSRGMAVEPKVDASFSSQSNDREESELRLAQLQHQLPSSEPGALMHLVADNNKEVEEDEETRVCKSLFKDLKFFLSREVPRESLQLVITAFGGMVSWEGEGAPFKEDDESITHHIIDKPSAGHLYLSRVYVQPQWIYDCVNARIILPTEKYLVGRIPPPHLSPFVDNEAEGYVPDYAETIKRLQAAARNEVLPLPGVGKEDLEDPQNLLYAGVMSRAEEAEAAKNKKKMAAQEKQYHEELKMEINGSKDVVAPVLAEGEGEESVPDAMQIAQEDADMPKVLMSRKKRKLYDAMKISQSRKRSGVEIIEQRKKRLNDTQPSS

B1: Arabidopsis Pescadillo (PES), YFP^N or YFP^C fusion for BiFC (protein, UniProt Q9LYK7 1-590)
chain: T5 sequence
B2: Flag-fused PES (PES:Flag) (protein, UniProt Q9LYK7 1-590)
chain: T5 sequence
B3: Myc-fused EBP2 (Myc:EBP2) (protein, UniProt Q9LUJ5 1-293)
chain: MSLEEDIVSDDEMNMIDEDDATDSEAESLSDSDTENEITEKLAEPTKTAIYNRDGLLDKLQDISWPEDVDWTHKLTVEIDQGGAVDVNDDLARETAFYTQALEGTREAFGKLNEMGVNFLRPANYYAEMVKSDVHMEKVKSRLLHEKKQIEESEERRKARDNKRMAKEVQSQKMKERAKEKKDNIESVKKWRKQRQQSGFSDKAGEPELDFESGKSFQRGGGKKRPGVSPGDRSGGKGRPTSRMGNKKREFRDSKFGHGGRKGLSKQNTAETTNDFKGGFRGGKASGNKRQKR
B4: EBNA1 binding protein 2 (EBP2), YFP^N or YFP^C fusion for BiFC (protein, UniProt Q9LUJ5 1-293)
chain: B3 chain

Assays:
[1] = target: T1, N-terminal domain of NSN1 (NSN1-N; amino acids 1-174), BiFC fusion (Arabidopsis thaliana); test: split reporter; BiFC: proteins co-expressed as YFP^N and YFP^C fusions in N. benthamiana leaves by agroinfiltration; after 48 h protoplasts observed by confocal laser scanning microscopy
[2] = target: T2, nucleostemin-like 1 (NSN1), YFP^N or YFP^C fusion for BiFC (Arabidopsis thaliana); test: as above
[3] = target: T3, NSN1 lacking the N-terminal 94 amino acids (∆N), BiFC fusion (Arabidopsis thaliana); test: as above
[4] = target: T4, haemagglutinin-fused NSN1 (NSN1:HA) (Arabidopsis thaliana); test: co-IP; extracts of N. benthamiana leaves co-expressing the tagged proteins; immunoprecipitation with anti-HA antibody, immunoblotting with anti-Flag or anti-Myc antibodies
[5] = target: T5, Arabidopsis Pescadillo (PES), YFP^N or YFP^C fusion for BiFC (Arabidopsis); test: split reporter; BiFC: proteins co-expressed as YFP^N and YFP^C fusions in N. benthamiana leaves by agroinfiltration; after 48 h protoplasts observed by confocal laser scanning microscopy

| Binder | binding [1] | binding [2] | binding [3] | binding [4] | binding [5] |
| --- | --- | --- | --- | --- | --- |
| B1 | binds | binds | binds |  |  |
| B2 |  |  |  | binds |  |
| B3 |  |  |  | binds |  |
| B4 | binds | binds | binds |  | binds |
